The source of these data is PMC12713097, “ARL3 Enhances ERα Stability via USP10 Deubiquitination to Promote Endocrine Resistance and Drive Mitochondrial Metabolic Reprogramming in HR+ Breast Cancer” (Advanced Science, 2025).

Amino acid sequences for entries named in this document (tags omitted). A change or cut given only in a name is not applied to a line headed by its entry. Residues count along the entry.
UniProt Q14694, residues 1-399: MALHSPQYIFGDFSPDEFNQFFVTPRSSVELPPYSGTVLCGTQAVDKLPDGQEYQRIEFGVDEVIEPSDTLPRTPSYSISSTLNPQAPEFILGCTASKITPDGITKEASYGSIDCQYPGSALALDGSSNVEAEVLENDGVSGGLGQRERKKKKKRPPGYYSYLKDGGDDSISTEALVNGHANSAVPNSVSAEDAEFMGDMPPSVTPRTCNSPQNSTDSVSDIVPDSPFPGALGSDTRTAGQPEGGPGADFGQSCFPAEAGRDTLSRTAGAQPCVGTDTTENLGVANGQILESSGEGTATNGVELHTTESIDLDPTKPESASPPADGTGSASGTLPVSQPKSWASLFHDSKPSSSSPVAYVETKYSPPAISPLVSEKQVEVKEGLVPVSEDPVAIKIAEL
UniProt P03372: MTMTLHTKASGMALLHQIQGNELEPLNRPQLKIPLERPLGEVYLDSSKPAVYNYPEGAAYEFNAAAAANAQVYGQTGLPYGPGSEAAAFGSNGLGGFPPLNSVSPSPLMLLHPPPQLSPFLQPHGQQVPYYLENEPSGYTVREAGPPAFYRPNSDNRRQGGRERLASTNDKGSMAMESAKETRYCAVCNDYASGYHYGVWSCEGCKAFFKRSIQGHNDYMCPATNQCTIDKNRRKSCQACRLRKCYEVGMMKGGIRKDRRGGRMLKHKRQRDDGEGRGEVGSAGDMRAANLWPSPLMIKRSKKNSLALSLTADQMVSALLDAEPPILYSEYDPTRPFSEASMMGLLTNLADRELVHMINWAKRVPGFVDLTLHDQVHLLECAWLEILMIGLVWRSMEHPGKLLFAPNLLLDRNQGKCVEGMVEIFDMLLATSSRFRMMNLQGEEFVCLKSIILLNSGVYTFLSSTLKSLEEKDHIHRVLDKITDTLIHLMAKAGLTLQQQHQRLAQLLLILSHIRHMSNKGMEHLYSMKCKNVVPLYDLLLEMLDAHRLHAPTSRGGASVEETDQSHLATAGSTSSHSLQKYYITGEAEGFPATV
UniProt P36405: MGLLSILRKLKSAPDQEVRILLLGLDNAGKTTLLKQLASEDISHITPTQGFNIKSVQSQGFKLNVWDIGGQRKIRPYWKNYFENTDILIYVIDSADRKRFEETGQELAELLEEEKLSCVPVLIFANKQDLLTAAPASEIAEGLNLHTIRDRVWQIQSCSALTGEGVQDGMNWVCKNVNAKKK

Assay [1] deals with USP10 N‐terminal fragment (1–399 amino acids) (UniProt Q14694). Briefly: co-IP; indicated constructs transfected into HEK293T cells, 24 h; IP with anti-FLAG or anti-HA antibodies (magnetic beads); immunoblot. For orientation: In western blotting, separated proteins are transferred to a membrane and probed.
The target of assay [2] is Estrogen receptor α (ERα), endogenous (human (endogenous in MCF7 and T47D)) (UniProt P03372). Briefly: co-IP; endogenous proteins in MCF7 and T47D lysates; IP lysis buffer 20 mM Tris-HCl pH 7.5, 150 mM NaCl, 1% NP-40; 16 h at 4 °C; Protein A/G magnetic beads; washes with 500 mM NaCl, 0.1% Tween-20; immunoblot.

Results are given in words; binding and its absence hold for the method and conditions named. In cells and extracts the contact can be indirect. Some results given as binding are weak or reduced against the parent protein; the word gives no strength.

As to “ARL3, tagged construct expressed in HEK293T (from UniProt P36405 1-182)”, in assay [1], the binding entry is “binds”.
In the case of “ADP‐ribosylation factor‐like protein 3 (ARL3), endogenous (from UniProt P36405 1-182)”, the binding result in assay [2] is recorded as “binds”.
